For assay [1], the target named is T1, N-α-Acetyltransferase 10 protein (Naa10p), endogenous (human (endogenous in MNNG/HOS)) (UniProt P41227).
T1 sequence: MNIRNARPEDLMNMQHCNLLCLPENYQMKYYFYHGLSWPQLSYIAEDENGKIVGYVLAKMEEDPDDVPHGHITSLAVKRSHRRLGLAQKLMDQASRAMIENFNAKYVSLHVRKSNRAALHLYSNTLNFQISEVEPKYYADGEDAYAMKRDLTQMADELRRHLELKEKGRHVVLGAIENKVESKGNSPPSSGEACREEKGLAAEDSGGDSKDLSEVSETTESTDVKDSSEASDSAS
The assay is described as follows: co-IP.

Sequences of proteins named here, by UniProt entry; tags and fusion partners are left off. A change or cut given only in a name is not applied to a line headed by its entry.
UniProt P08253: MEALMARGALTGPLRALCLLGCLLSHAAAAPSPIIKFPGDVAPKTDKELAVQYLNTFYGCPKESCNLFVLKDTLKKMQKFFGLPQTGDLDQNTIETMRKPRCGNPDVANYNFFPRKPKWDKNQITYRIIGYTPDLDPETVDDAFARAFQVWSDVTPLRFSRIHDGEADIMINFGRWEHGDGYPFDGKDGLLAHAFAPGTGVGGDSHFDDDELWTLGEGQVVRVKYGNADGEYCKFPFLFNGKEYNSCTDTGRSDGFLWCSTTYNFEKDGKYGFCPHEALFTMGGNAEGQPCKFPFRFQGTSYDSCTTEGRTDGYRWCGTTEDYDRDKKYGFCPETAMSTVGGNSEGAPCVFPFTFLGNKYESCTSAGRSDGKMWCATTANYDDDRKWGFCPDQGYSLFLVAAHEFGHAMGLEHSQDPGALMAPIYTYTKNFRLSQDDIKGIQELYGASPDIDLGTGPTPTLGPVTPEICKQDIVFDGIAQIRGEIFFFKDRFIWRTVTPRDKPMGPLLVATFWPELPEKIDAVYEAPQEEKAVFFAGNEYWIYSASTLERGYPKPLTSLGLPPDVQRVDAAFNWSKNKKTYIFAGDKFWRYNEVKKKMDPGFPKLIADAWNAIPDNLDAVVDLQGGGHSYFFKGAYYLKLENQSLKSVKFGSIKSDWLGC
UniProt P14780: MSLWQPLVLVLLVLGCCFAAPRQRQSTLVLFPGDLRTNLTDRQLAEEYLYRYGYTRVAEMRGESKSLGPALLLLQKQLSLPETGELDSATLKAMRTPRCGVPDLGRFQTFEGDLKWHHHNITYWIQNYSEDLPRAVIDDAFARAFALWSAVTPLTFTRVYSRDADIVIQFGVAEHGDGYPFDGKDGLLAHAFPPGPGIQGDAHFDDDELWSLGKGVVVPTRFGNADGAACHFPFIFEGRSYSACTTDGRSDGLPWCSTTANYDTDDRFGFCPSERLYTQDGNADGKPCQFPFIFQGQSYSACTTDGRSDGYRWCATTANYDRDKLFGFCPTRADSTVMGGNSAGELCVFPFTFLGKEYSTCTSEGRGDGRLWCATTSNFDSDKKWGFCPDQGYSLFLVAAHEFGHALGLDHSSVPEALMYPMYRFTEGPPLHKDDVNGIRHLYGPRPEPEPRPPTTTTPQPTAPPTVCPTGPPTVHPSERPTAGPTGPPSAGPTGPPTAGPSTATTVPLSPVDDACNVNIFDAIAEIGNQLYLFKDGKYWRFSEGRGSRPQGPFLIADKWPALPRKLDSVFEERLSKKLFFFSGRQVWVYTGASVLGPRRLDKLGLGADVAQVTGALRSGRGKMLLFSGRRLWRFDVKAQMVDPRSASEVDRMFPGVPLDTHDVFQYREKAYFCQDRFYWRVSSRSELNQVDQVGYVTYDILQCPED

For assay [2], the target named is T2, Naa15p, endogenous (human (endogenous in MNNG/HOS)) (UniProt Q9BXJ9).
T2 sequence: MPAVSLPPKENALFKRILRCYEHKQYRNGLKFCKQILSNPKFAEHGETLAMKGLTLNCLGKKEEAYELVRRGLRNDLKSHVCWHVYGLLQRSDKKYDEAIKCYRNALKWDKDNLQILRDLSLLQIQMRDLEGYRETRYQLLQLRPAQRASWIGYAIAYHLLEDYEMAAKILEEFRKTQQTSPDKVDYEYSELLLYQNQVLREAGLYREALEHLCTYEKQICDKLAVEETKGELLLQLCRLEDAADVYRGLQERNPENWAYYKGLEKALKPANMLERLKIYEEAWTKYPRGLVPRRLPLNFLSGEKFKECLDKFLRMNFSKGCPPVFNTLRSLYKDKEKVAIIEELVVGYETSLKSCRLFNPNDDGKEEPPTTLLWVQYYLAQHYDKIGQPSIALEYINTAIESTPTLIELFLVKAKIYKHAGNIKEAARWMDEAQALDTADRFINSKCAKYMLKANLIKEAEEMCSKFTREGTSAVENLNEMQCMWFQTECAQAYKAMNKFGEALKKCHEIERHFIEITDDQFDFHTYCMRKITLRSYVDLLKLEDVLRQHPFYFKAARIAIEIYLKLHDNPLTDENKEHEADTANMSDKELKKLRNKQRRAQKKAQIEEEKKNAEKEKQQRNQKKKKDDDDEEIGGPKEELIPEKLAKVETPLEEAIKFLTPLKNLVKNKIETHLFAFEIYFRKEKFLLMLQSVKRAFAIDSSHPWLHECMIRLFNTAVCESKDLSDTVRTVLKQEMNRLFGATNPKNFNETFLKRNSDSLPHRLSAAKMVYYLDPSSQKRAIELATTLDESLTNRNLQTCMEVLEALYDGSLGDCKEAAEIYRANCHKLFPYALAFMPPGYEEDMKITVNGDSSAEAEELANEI
Kind of assay: co-IP.

For assay [3], the target named is T3, GST-Naa10p residues 59~235 (N-terminal-deleted Naa10p) (UniProt P41227).
T3 sequence: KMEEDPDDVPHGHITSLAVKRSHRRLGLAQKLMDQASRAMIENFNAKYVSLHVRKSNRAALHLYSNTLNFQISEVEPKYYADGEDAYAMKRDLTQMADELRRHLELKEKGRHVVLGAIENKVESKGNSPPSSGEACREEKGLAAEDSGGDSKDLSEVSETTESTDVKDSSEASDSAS
The assay is described as follows: pull-down.

The target in assay [4] is T4, GST-Naa10p residues 60~130 (acetyltransferase domain) (UniProt P41227).
T4 sequence: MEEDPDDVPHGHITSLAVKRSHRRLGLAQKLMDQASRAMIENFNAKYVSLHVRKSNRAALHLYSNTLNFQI
Kind of assay: pull-down.

The target of the next assay is T5, GST-Naa10p (full-length) (UniProt P41227).
T5 sequence: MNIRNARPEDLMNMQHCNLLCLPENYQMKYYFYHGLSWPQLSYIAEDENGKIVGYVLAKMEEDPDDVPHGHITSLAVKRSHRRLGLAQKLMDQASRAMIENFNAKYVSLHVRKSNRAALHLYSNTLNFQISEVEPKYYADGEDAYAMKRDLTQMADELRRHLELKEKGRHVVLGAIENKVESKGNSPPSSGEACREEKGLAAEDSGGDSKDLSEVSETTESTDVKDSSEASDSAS
Kind of assay: pull-down.

The target of assay [5] is T6, GST-Naa10p residues 131~235 (C-terminal Naa10p) (UniProt P41227).
T6 sequence: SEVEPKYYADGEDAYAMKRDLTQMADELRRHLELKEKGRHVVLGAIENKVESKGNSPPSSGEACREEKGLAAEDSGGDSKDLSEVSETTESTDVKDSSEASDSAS
The assay is described as follows: condition: 20 µg GST fragment and 2 µg rMMP2 in 1 ml.

In assay [6] the target is matrix metalloproteinase (MMP)-2, endogenous (human (endogenous in MNNG/HOS)) (UniProt P08253). Kind of assay: co-IP.

The source of these data is doi:10.1101/243592.

No constants are given. Whether binding was seen depends on the method and setting. For some assays here: Binding calls can cover weak binding; strength is not graded here. For some assays here: Tags and fused reporters may be left off the sequences shown. For some assays here: In cells and extracts the contact can be indirect.

As to MMP-9, endogenous (from UniProt P14780), in assay [1], the binding result is “no binding”.

Consider “matrix metalloproteinase (MMP)-2, endogenous (from UniProt P08253)”, for which the figures for the binding entry in assay [1] and in assay [2] were “binds” and “no binding”, respectively.

Turning to “recombinant human MMP-2 (from UniProt P08253) (enzyme)”, the binding result is “binds” in assay [3], “binds” in assay [4], “binds” with GST-Naa10p (full-length) and “no binding” in assay [5].

B1: N-α-Acetyltransferase 10 protein (Naa10p), endogenous (protein, UniProt P41227 1-235)
chain: MNIRNARPEDLMNMQHCNLLCLPENYQMKYYFYHGLSWPQLSYIAEDENGKIVGYVLAKMEEDPDDVPHGHITSLAVKRSHRRLGLAQKLMDQASRAMIENFNAKYVSLHVRKSNRAALHLYSNTLNFQISEVEPKYYADGEDAYAMKRDLTQMADELRRHLELKEKGRHVVLGAIENKVESKGNSPPSSGEACREEKGLAAEDSGGDSKDLSEVSETTESTDVKDSSEASDSAS
Regarding B1, the binding result in assay [6] was “binds”.
